Measured values taken from publication PMC6011996.

Protein sequences, listed by entry. Tags and fused reporters are not part of them. Lines headed by an entry give the natural chain unless they say otherwise; changes in a name come on top.
UniProt B7UM95: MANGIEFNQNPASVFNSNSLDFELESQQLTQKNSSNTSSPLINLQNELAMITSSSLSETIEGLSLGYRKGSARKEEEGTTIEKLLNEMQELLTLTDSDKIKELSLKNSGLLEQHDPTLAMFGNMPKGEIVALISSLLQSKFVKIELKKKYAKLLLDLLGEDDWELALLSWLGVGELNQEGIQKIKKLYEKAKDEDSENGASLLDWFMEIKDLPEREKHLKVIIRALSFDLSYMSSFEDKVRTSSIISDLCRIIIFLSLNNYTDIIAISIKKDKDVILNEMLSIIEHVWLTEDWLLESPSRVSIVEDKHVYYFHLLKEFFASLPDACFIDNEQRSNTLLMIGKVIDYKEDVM
UniProt B7UMB2: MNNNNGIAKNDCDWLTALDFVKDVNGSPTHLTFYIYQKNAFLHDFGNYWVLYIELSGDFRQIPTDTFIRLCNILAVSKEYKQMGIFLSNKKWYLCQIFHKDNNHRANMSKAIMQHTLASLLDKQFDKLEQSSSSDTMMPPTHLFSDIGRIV

Target: SepL-3FLAG (enteropathogenic Escherichia coli (EPEC) E2348/69) (UniProt B7UM95)
Test: co-IP

SepD (from UniProt B7UMB2)
binding: binds

These are yes or no findings as the source states them, for the method shown. Binding seen in cells or lysates may run through a third protein. Binding calls can cover weak binding; strength is not graded here.
